Source: the supplement of paper PMC10849652
The other results are listed elsewhere or left out. Residues, ends and D or L forms follow the SMILES beside them. *: point of attachment. Cbz = O=C(OCc1ccccc1)*

The chains behind the UniProt entries cited, without tags or fusion partners. Where a name states a change or a piece, a line headed by the entry shows the natural chain unless it says otherwise.
UniProt Q6PCE3: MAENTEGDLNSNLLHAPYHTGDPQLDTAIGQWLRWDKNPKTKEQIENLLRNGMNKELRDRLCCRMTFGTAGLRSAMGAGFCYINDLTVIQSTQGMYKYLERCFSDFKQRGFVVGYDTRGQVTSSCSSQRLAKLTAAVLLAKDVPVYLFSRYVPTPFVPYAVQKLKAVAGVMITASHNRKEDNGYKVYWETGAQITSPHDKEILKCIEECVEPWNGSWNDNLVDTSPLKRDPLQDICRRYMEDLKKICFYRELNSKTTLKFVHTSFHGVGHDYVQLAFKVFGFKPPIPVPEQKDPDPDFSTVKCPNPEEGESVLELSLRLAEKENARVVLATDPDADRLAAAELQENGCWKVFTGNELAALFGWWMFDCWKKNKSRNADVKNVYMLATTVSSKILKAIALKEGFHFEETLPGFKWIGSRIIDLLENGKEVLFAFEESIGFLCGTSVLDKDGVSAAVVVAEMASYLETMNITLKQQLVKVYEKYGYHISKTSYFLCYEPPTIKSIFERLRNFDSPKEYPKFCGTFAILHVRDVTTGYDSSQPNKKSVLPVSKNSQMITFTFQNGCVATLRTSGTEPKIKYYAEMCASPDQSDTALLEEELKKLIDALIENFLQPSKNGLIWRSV
UniProt Q13492: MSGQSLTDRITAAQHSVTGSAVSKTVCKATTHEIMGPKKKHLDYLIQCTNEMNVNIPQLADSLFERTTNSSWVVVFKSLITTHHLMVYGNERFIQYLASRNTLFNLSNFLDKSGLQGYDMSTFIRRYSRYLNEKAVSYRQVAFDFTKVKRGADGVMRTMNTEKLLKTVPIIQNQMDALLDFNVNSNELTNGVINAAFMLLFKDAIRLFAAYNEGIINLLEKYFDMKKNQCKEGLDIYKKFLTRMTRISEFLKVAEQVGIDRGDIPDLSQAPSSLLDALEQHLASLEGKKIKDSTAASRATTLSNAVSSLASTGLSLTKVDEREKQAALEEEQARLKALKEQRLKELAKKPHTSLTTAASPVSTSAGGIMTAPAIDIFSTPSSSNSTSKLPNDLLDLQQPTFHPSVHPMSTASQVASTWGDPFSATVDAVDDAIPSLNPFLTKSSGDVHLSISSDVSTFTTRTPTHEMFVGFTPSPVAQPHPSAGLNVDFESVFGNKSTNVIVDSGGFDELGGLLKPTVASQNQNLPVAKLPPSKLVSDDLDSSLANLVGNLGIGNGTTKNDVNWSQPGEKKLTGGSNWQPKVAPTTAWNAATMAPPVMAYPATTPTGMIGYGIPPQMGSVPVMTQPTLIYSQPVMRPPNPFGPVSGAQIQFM
UniProt Q9H814, whole entry, looked up: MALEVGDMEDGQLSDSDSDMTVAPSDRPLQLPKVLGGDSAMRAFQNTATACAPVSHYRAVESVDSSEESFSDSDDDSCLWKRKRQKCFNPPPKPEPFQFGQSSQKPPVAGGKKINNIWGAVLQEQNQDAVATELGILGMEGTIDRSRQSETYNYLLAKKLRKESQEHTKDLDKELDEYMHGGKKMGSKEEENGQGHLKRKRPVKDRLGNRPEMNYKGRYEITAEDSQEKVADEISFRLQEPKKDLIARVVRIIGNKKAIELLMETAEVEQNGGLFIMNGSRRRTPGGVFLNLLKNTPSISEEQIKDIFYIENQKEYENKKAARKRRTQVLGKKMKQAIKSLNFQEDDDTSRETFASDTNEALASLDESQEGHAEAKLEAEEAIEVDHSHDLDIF
UniProt P12273: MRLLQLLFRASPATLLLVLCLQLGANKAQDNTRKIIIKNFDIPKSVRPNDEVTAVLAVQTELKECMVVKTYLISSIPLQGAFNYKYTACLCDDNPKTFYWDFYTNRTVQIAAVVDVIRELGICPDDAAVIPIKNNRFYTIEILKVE
UniProt Q6P4A8: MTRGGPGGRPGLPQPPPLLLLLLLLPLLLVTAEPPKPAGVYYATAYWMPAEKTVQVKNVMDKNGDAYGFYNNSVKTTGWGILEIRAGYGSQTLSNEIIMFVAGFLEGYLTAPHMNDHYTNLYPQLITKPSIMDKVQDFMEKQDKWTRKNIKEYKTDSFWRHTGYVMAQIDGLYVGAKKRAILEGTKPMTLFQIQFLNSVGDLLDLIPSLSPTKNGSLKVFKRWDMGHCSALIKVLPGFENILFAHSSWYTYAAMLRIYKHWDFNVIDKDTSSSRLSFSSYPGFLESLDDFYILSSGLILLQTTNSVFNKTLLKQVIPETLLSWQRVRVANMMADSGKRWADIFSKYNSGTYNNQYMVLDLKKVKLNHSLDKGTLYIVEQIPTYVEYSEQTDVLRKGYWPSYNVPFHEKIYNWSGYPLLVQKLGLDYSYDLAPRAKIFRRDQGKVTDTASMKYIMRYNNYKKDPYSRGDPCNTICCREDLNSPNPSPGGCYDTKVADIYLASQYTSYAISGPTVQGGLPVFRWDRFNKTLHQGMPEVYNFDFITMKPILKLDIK
UniProt Q9Y2B2: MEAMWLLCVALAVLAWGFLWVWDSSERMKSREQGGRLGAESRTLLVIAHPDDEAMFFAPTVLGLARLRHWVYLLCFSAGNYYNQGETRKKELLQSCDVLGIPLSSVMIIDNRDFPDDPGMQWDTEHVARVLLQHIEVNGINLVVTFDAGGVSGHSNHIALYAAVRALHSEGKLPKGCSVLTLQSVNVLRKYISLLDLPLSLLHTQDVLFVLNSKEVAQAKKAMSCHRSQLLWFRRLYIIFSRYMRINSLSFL
UniProt O00459, whole entry, looked up: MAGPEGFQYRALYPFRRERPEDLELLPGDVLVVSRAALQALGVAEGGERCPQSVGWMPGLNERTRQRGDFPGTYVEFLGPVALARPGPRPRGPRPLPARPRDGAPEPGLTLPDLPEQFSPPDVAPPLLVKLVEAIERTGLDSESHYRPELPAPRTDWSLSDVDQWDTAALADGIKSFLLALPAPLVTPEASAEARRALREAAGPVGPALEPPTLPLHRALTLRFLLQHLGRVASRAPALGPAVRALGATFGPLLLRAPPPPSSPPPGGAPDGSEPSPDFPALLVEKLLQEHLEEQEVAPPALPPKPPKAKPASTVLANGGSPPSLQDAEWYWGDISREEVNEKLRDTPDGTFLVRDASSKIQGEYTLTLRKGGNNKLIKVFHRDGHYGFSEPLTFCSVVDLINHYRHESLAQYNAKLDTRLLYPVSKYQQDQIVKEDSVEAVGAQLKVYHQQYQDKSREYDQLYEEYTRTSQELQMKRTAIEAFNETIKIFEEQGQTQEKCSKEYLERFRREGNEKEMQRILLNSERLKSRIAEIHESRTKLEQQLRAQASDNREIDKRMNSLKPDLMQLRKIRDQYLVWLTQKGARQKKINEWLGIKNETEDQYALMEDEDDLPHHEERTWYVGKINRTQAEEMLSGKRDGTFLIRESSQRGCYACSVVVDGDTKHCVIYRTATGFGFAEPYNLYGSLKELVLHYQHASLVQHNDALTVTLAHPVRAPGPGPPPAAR
UniProt Q8IWS0: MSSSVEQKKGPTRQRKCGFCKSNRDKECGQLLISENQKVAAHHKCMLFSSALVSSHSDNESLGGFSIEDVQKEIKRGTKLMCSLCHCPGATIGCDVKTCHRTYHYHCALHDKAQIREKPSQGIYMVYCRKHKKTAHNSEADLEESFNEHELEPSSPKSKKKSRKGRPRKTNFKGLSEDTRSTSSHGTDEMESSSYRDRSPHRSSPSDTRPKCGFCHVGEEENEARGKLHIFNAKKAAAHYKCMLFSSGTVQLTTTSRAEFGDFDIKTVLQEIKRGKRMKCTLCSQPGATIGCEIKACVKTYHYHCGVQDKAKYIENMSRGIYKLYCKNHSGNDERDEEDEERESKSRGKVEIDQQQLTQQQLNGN
UniProt P35232: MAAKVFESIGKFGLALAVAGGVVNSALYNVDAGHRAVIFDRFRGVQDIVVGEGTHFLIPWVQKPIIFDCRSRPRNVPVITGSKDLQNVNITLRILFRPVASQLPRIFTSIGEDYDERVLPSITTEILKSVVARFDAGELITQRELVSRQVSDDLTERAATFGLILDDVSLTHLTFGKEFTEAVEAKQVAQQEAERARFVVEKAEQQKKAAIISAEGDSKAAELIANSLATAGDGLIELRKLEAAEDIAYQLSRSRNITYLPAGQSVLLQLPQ
UniProt P17858: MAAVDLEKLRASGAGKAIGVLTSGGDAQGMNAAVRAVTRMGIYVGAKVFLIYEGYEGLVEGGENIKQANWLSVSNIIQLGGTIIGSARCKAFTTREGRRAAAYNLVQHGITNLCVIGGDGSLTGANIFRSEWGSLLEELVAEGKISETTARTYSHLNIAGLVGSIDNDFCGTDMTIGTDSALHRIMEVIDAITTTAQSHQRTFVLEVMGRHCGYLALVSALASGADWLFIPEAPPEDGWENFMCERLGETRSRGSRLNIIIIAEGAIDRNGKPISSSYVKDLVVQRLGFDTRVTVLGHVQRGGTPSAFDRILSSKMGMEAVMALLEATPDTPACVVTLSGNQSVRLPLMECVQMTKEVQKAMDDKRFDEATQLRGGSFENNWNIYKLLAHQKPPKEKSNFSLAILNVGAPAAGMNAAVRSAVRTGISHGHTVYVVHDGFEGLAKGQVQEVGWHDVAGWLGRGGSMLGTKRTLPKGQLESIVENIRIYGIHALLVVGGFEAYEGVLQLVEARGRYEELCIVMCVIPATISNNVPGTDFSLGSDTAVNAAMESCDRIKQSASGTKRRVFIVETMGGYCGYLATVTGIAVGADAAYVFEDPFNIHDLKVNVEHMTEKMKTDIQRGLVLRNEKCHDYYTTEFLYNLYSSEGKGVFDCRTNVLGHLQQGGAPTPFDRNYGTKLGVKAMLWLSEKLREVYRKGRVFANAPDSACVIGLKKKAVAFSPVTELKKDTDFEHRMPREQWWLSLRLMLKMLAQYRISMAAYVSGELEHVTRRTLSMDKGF
UniProt Q8IZ21: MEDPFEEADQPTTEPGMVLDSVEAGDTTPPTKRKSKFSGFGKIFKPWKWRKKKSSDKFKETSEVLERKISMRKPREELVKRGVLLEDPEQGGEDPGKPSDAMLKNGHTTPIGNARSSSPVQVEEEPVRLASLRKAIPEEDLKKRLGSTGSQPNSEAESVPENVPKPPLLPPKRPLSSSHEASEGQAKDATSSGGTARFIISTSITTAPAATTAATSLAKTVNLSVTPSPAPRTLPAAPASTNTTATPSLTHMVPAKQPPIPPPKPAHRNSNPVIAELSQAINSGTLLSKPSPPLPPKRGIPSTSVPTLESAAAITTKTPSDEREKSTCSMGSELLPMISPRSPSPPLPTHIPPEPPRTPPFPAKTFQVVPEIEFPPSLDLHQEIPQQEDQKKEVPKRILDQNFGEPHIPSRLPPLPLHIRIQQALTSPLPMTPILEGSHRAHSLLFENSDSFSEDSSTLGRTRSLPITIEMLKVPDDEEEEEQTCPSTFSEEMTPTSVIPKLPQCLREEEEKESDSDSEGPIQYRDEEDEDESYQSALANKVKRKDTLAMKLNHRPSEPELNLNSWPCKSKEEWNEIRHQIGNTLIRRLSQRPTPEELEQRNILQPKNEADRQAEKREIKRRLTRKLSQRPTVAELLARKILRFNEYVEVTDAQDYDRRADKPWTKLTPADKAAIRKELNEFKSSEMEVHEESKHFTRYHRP
UniProt P07737, whole entry, looked up: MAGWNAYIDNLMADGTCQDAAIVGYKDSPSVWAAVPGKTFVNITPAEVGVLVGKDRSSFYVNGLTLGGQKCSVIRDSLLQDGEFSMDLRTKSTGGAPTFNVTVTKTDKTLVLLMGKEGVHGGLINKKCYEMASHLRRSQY
UniProt Q9BTU6: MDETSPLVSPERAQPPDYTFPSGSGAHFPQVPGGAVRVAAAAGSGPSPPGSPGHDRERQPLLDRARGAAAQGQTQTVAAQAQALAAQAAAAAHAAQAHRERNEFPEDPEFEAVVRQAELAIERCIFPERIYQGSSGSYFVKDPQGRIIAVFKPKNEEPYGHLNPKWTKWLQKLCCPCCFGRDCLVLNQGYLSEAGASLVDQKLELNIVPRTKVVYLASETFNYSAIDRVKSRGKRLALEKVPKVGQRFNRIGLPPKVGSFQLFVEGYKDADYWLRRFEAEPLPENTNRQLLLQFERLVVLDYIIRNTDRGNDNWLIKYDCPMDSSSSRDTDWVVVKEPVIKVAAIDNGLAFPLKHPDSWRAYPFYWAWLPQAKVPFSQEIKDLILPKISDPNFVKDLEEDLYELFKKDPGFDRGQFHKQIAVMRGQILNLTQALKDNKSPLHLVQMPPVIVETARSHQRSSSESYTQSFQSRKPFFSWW
UniProt Q9NRX4: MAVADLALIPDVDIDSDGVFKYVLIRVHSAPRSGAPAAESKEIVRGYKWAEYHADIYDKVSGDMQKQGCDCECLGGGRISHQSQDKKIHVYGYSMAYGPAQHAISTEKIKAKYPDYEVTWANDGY
UniProt Q96BK5: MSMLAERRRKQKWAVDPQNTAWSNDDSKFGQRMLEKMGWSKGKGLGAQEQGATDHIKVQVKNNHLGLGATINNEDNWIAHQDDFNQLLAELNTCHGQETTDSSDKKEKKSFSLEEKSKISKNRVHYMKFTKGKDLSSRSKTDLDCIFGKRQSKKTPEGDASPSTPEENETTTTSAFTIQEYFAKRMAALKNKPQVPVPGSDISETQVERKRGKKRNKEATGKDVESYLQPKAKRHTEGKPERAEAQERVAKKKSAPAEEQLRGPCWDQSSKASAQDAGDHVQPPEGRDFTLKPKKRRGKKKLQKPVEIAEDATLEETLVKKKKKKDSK

What was measured:
Experiment in all cases: log2 fold change, soluble protein after heating vs DMSO (PISA); higher = thermal stabilisation; K562 cells, 10 uM, 30 min; active = over 0.2 and 3.5 SD of the protein, either way, in both replicates (recomputed)
IRAK-1-4 Inhibitor I = compound: C1COCCN1CCN2C3=CC=CC=C3N=C2NC(=O)C4=CC(=CC=C4)[N+](=O)[O-] [IRAK-1-4 Inhibitor I]
Method in brief: (§1)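 K562 cells (2×10^6 cells/mL) were treated with 10 μM compound for 30 min, and aliquots were heated for 3 min over 48°C-58°C. Pooled aliquots were extracted in PBS with 0.5% NP-40 at 4°C, and the supernatant after 21,000xg for 90 min was measured by TMTpro 16plex LC-MS/MS with channel sums equalised. Reported thermal stability, relative to control samples and from duplicates, is a log2 fold change.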

ibrutinib = compound: C=CC(=O)N1CCC[C@@H](n2nc(-c3ccc(Oc4ccccc4)cc3)c3c(N)ncnc32)C1 [ibrutinib]
Method in brief: as §1

[1] = compound: CC(=O)c1cnc2ccc(-c3cc(Cl)c(O)c(Cl)c3)nc2c1N[C@H]1CC[C@H](CN(C)C)CC1
Method in brief: as §1

ralimetinib = compound: CC(C)(C)Cn1c(N)nc2ccc(-c3[nH]c(C(C)(C)C)nc3-c3ccc(F)cc3)nc21 [ralimetinib]
Method in brief: as §1

[2] = compound: CC(C)(O)CC(=O)NCCn1ccc2ncnc(Nc3ccc(Oc4cccc(C(F)(F)F)c4)c(Cl)c3)c21
Method in brief: as §1

[3] = compound: CC(C)C1=C2N=C(C=C(N2N=C1)NCC3=CC=CC=C3)NCCCCCCN
Method in brief: as §1

[4] = compound: CC(C)C[C@@H](C=O)NC(=O)[C@H](CC(C)C)NC(=O)[C@H](CC(C)C)NC(=O)OCc1ccccc1
Method in brief: as §1

pinometostat = compound: CC(C)N(C[C@H]1O[C@@H](n2cnc3c(N)ncnc32)[C@H](O)[C@@H]1O)[C@H]1C[C@@H](CCc2nc3cc(C(C)(C)C)ccc3[nH]2)C1 [pinometostat]
Method in brief: as §1

[5] = compound: CC1=C(C(CC(=O)N1)C2=CC=C(C=C2)C(F)(F)F)C(=O)NC3=C(C=C4C(=C3)C=NN4)F
Method in brief: as §1

[6] = compound: CC1=C(C2=C(C=C1)C(=O)C3=CC=CC=C3N2CCCN)C
Method in brief: as §1

[7] = compound: CC1=C(C=C(C=C1)NC(=O)C2=CC(=CC=C2)C(C)(C)C#N)NC3=CC4=C(C=C3)N=CN(C4=O)C
Method in brief: as §1

[8] = compound: CC1=C(C=C(C=C1)NC(=O)C2=CC(=CC=C2)N(C)C)NC(=O)C3=CC=C(C=C3)O
Method in brief: as §1

[9] = compound: CC1=CC=C(C=C1)SC2=C3C=C(SC3=CN=C2)C(=O)N
Method in brief: as §1

[10] = compound: CC1=NC(=CC=C1)C2=C(N=C(N2)C(C)(C)C)C3=CC4=NC=CN=C4C=C3
Method in brief: as §1

Nexturastat A = compound: CCCCN(Cc1ccc(C(=O)NO)cc1)C(=O)Nc1ccccc1 [Nexturastat A]
Method in brief: as §1

vemurafenib = compound: CCCS(=O)(=O)Nc1ccc(F)c(C(=O)c2c[nH]c3ncc(-c4ccc(Cl)cc4)cc23)c1F [vemurafenib]
Method in brief: as §1

[11] = compound: CCCS(=O)(=O)Nc1ccc(F)c(C(=O)c2c[nH]c3ncc(Cl)cc23)c1F
Method in brief: as §1

[12] = compound: CCCc1cc(C)[nH]c(=O)c1CNC(=O)c1cc(-c2ccnc(N3CCN(C)CC3)c2)cc2c1cnn2C(C)C
Method in brief: as §1

givinostat = compound: CCN(CC)Cc1ccc2cc(COC(=O)Nc3ccc(C(=O)NO)cc3)ccc2c1 [givinostat]
Method in brief: as §1

barasertib = compound: CCN(CCCOc1ccc2c(Nc3cc(CC(=O)Nc4cccc(F)c4)[nH]n3)ncnc2c1)CCOP(=O)(O)O [barasertib]
Method in brief: as §1

Target	log2 fold change (IRAK-1-4 Inhibitor I)	log2 fold change (ibrutinib)	log2 fold change [1]	log2 fold change (ralimetinib)	log2 fold change [2]	log2 fold change [3]	log2 fold change [4]	log2 fold change (pinometostat)	log2 fold change [5]	log2 fold change [6]	log2 fold change [7]	log2 fold change [8]	log2 fold change [9]	log2 fold change [10]	log2 fold change (Nexturastat A)	log2 fold change (vemurafenib)	log2 fold change [11]	log2 fold change [12]	log2 fold change (givinostat)	log2 fold change (barasertib)
PGM2L1 (UniProt Q6PCE3)	inactive: 0.069	inactive: 0.041	inactive: 0.004	inactive: -0.024	inactive: 0	inactive: -0.042	inactive: -0.015	inactive: -0.022	inactive: 0.057	inactive: 0	inactive: -0.041	inactive: 0.022	inactive: -0.023	inactive: -0.024	inactive: 0.009	inactive: -0.042	inactive: 0.036	inactive: 0.018	inactive: -0.025	inactive: 0.031
PICALM (UniProt Q13492)	inactive: 0.067	inactive: 0.002	inactive: -0.039	inactive: -0.008	inactive: 0	inactive: 0.016	inactive: -0.007	inactive: -0.003	inactive: -0.016	inactive: 0.044	inactive: -0.015	inactive: 0.012	inactive: -0.02	inactive: 0.035	inactive: -0.032	inactive: 0.022	inactive: 0.032	inactive: -0.083	inactive: -0.007	inactive: 0.018
PHAX (UniProt Q9H814)	inactive: 0.015	inactive: 0.027	inactive: -0.041	inactive: 0.002	inactive: 0.024	inactive: -0.16	inactive: 0.019	inactive: 0.016		active: -0.253	inactive: -0.019	inactive: 0.013	inactive: 0.022	inactive: -0.043	inactive: 0.02	inactive: 0.002	inactive: -0.019	inactive: -0.045	inactive: -0.076	inactive: -0.008
PIP (UniProt P12273)	inactive: 0.015	inactive: -0.037	inactive: -0.166	inactive: -0.186	inactive: -0.02	inactive: -0.027	inactive: -0.315	inactive: -0.143	inactive: -0.457	inactive: 0.725	inactive: -0.152	inactive: 0.032	inactive: 0.406	inactive: -0.137	inactive: -0.133	inactive: -0.108	inactive: -0.484	inactive: 0.04	inactive: 0.149	inactive: 0.374
PFKFB2 (UniProt O60825)	inactive: 0.023	inactive: 0.029	inactive: -0.011	inactive: -0.029	inactive: 0.05	inactive: 0.04	inactive: -0.006	inactive: -0.043	inactive: -0.016	inactive: 0.025	inactive: -0.034	inactive: -0.002	inactive: 0.009	inactive: -0.023	inactive: -0.037	inactive: 0.019	inactive: -0.009	inactive: -0.013	inactive: -0.02	inactive: 0.044
PLBD1 (UniProt Q6P4A8)	inactive: 0.033	inactive: -0.002	inactive: 0.025	inactive: -0.077	inactive: 0.036	inactive: -0.012	inactive: -0.015	inactive: 0.057		inactive: 0.02	inactive: 0.005	inactive: -0.023	inactive: 0.032	inactive: -0.039	inactive: 0.005	inactive: 0.069	inactive: -0.014	inactive: 0.006	inactive: -0.013	inactive: 0.027
PIGL (UniProt Q9Y2B2)	inactive: 0.104	inactive: -0.003	inactive: 0.034	inactive: -0.111	inactive: 0.005	inactive: -0.064	inactive: 0.045	inactive: 0.005	inactive: 0.08	inactive: -0.117		inactive: -0.05		inactive: 0.062	inactive: -0.192	inactive: 0.03		inactive: 0.129	inactive: 0.029	inactive: 0.008
PIK3R2 (UniProt O00459)	inactive: 0.008	inactive: -0.019	inactive: -0.016	inactive: -0.067	inactive: 0.079	inactive: -0.133	inactive: 0.108	inactive: 0.038	inactive: 0.197	inactive: 0.084	inactive: -0.06	inactive: -0.008	inactive: 0.016	inactive: -0.022	inactive: 0.02	inactive: 0.052	inactive: -0.065	inactive: -0.069	inactive: 0.112	inactive: 0.091
PHF6 (UniProt Q8IWS0)	inactive: -0.105	inactive: 0.035	inactive: 0.06	inactive: 0.235	inactive: 0.042	inactive: 0.129	inactive: 0.097	inactive: 0.262	inactive: 0.035	inactive: -0.267	inactive: 0.015	inactive: -0.037	inactive: -0.089	inactive: -0.092	inactive: 0.187	inactive: -0.075	inactive: -0.015	inactive: 0.114	inactive: 0.039	inactive: -0.057
PHB (UniProt P35232)	inactive: 0.005	inactive: 0.004	inactive: -0.009	inactive: -0.081	inactive: -0.008	inactive: 0.011	inactive: -0.033	inactive: -0.033	inactive: 0.02	inactive: 0.048	inactive: 0.008	inactive: -0.02	inactive: -0.012	inactive: 0.012	inactive: -0.019	inactive: -0.041	inactive: -0.012	inactive: -0.007	inactive: -0.022	inactive: -0.004
PFKL isoform 2 (UniProt P17858)	inactive: 0.015	inactive: 0.018	inactive: 0.003	inactive: -0.053	inactive: 0.02	inactive: 0.108	inactive: -0.058	inactive: -0.022	inactive: 0.015	inactive: 0.013	inactive: -0.049	inactive: -0.003	inactive: 0.027	inactive: -0.002	inactive: -0.049	inactive: -0.01	inactive: -0.016	inactive: -0.022	inactive: 0	inactive: -0.009
PHACTR4 isoform 2 (UniProt Q8IZ21)	inactive: -0.007	inactive: 0.038	inactive: 0.009	inactive: -0.004	inactive: -0.027	inactive: 0.102	inactive: 0	inactive: -0.047	inactive: -0.035	inactive: 0.017	inactive: -0.007	inactive: 0.012	inactive: -0.01	inactive: 0.016	inactive: -0.001	inactive: -0.023	inactive: -0.043	inactive: -0.041	inactive: 0.085	inactive: 0.002
PFN1 (UniProt P07737)	inactive: 0.03	inactive: 0.017	inactive: 0	inactive: -0.05	inactive: 0.005	inactive: 0.021	inactive: -0.04	inactive: -0.034	inactive: -0.005	inactive: -0.003	inactive: 0.02	inactive: 0	inactive: 0.006	inactive: 0.017	inactive: -0.074	inactive: -0.019	inactive: 0.013	inactive: -0.003	inactive: -0.044	inactive: 0.025
PI4K2A (UniProt Q9BTU6)	inactive: 0.01	inactive: -0.018	inactive: -0.026	inactive: -0.072	inactive: -0.062	inactive: -0.158	inactive: -0.002	inactive: -0.024		inactive: -0.006	inactive: -0.037	inactive: -0.02	inactive: 0.004	inactive: 0.023	inactive: -0.005	inactive: 0.023	inactive: 0.015	inactive: -0.036	inactive: -0.008	inactive: -0.011
PHPT1 (UniProt Q9NRX4)	inactive: 0.042	inactive: -0.021	inactive: -0.004	inactive: -0.112	inactive: 0.011	inactive: 0.021	inactive: 0.047	inactive: -0.008	inactive: -0.017	inactive: 0.029	inactive: -0.011	inactive: 0.01	inactive: 0.067	inactive: 0.016	inactive: -0.178	inactive: -0.003	inactive: -0.017	inactive: -0.035	inactive: -0.049	inactive: 0.016
PINX1 (UniProt Q96BK5)	inactive: -0.291	inactive: 0.167	inactive: 0.233	inactive: 0.208	inactive: 0.052	inactive: 0.09	inactive: 0.149	inactive: 0.231	inactive: -0.125	inactive: -0.362	inactive: 0.028	inactive: 0.05	inactive: -0.119	inactive: -0.267	inactive: 0.481	inactive: -0.233	inactive: -0.044	inactive: 0.212	inactive: 0.019	inactive: -0.152

Reformatted with bars between the fields: entries from further up.
Target | log2 fold change (IRAK-1-4 Inhibitor I) | log2 fold change (ibrutinib) | log2 fold change [1] | log2 fold change (ralimetinib) | log2 fold change [2] | log2 fold change [3] | log2 fold change [4] | log2 fold change (pinometostat) | log2 fold change [5] | log2 fold change [6] | log2 fold change [7] | log2 fold change [8] | log2 fold change [9] | log2 fold change [10] | log2 fold change (Nexturastat A) | log2 fold change (vemurafenib) | log2 fold change [11] | log2 fold change [12] | log2 fold change (givinostat) | log2 fold change (barasertib)
PLBD1 (UniProt Q6P4A8) | inactive: 0.033 | inactive: -0.002 | inactive: 0.025 | inactive: -0.077 | inactive: 0.036 | inactive: -0.012 | inactive: -0.015 | inactive: 0.057 |  | inactive: 0.02 | inactive: 0.005 | inactive: -0.023 | inactive: 0.032 | inactive: -0.039 | inactive: 0.005 | inactive: 0.069 | inactive: -0.014 | inactive: 0.006 | inactive: -0.013 | inactive: 0.027
PHF6 (UniProt Q8IWS0) | inactive: -0.105 | inactive: 0.035 | inactive: 0.06 | inactive: 0.235 | inactive: 0.042 | inactive: 0.129 | inactive: 0.097 | inactive: 0.262 | inactive: 0.035 | inactive: -0.267 | inactive: 0.015 | inactive: -0.037 | inactive: -0.089 | inactive: -0.092 | inactive: 0.187 | inactive: -0.075 | inactive: -0.015 | inactive: 0.114 | inactive: 0.039 | inactive: -0.057
